# Measurements from PubChem BioAssay AID493014 (National Center for Advancing Translational Sciences (NCATS), 2011).
# Screen size: about 340,000 compounds; about 170 (0.05%) were called active. Inconclusive means that the source gave no clear call. Such entries were picked first, then a sample of the others. Calls come from the whole dose curve; as a rule, active = well fitted inhibition curve with a large enough effect in the signal ratio, with a control signal flat (not every such curve was filed as active); inconclusive = small, poorly fitted or top-dose-only effect, or effect the other way, or a change in a side signal; inactive = flat fitted curve, though single readings scatter; the % refers to the signal ratio. Potencies beside an inconclusive call are fits to weak or partial responses and may not hold up.
# Test: qHTS Assay to Find Inhibitors of Chronic Active B-Cell Receptor Signaling;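 for activity change, negative = inhibition: plate controls were basal doxycycline-induced cells for no effect and cells given 10 µM MG132 for full effect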
# Settings: ABC-DLBCL IkBa-CBG/CBR reporter, luminescence ratio (green luciferase fused to IkBa over red control in TMD8 lymphoma cells), 4 h; activity change, negative = inhibition: at 46.1 µM (top of the series)
# Summary of the method: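 TMD8 human ABC-DLBCL cells with doxycycline-inducible IκBα–green luciferase fusion and unfused red luciferase, in 0.5% FBS medium; compounds up to 46 uM, 4 h at 37C. Green/red luminescence ratio, filter-overlap corrected, fitted to concentration-response curves.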
# Potency is the fitted concentration of half-maximal effect.
Compound,"activity change, negative = inhibition",Potency
CC1=CC(C)C2C(=O)N(CCCN(C)C)C(=O)C2C1 (stereo not drawn),inconclusive: 1.65%,–
C=CC[C@@H](CC(=O)NCCO)C(=O)NC[C@H](OC(=O)[C@@H](CC=C)CC(=O)OC(C)(C)C)c1ccccc1,inactive,–
C[C@H](C(=O)CC(=O)OC(C)(C)C)[C@H](O)c1ccc(C(F)(F)F)cc1,inconclusive: 15.2%,–
CCn1cc(C(=O)N2CCN(c3cccc(Cl)c3)CC2)c2cc(OC)c(OC)cc2c1=O,inconclusive: 6.85%,–
Cc1cc(C)c(C#N)c(N2CCSCC2)n1,inconclusive: -4.62%,–
C#C[C@]1(O)CC[C@H]2[C@@H]3CCc4cc(OC5CCCC5)ccc4[C@H]3CC[C@@]21C,inactive,–
Cc1cc(C)nc(/N=C(\N)Nc2ccc(OCCC(C)C)cc2)n1,inactive,–
Clc1ccc2nc(-c3ccccc3)c(CN3CCOCC3)n2c1,inactive,–
O=C(CN1CCCc2ccccc21)N/N=C/c1ccc(F)cc1F,–,"inconclusive: 22.4 µM [falling, single point]"
CN(C)S(=O)(=O)Oc1cccc(C(=O)Nc2cccc(Cl)c2)c1,inconclusive: 2.38%,–
N#CC1(NC(=O)CN2c3cccc4cccc(c34)S2(=O)=O)CCCCC1,inconclusive: 1.04%,–
CN(C)CCC=C1c2ccccc2CCc2ccccc21,–,"inconclusive: 23.1 µM [falling, single point]"
CCOC(=O)c1ccc(NC(=O)CSc2nc(C)nc3c2c(=O)n(C)c(=O)n3C)cc1,inconclusive: 11.8%,–
CSS(=O)(=O)c1cccc2cccnc12,inconclusive: -26.2%,–
Cc1cccc(N/N=C/c2ccc(O)c(O)c2O)c1,inconclusive: 15.6%,–
CCOC(=O)c1c(C)oc2c1c(C=NCC1CCCO1)c(O)c1ccccc12 (stereo not drawn),inactive,–
O=C(COc1ccc(/C=N/NC(=O)c2ccccc2)cc1)Nc1ccc([N+](=O)[O-])cc1,–,"inconclusive: 15.8 µM [falling, single point]"
COc1cccc(-c2cc3onc(-c4ccccc4)c3c(=O)n2C)c1,–,"inconclusive: 20.6 µM [falling, single point]"
O=C(c1ccco1)N1CCN=C1SCc1cccnc1,inactive,–
COCCNC(=O)CSc1nc2cc(OC)c(OC)cc2c(=O)n1Cc1ccco1,inconclusive: 11%,–
CCC1C(=O)Nc2ccccc2N1C(=O)COc1ccccc1 (stereo not drawn),inactive,–

# Exported with tabs: part of the list above.
Compound	activity change, negative = inhibition	Potency
CSS(=O)(=O)c1cccc2cccnc12	inconclusive: -26.2%	–
Cc1cccc(N/N=C/c2ccc(O)c(O)c2O)c1	inconclusive: 15.6%	–
CCOC(=O)c1c(C)oc2c1c(C=NCC1CCCO1)c(O)c1ccccc12 (stereo not drawn)	inactive	–
O=C(COc1ccc(/C=N/NC(=O)c2ccccc2)cc1)Nc1ccc([N+](=O)[O-])cc1	–	inconclusive: 15.8 µM [falling, single point]
COc1cccc(-c2cc3onc(-c4ccccc4)c3c(=O)n2C)c1	–	inconclusive: 20.6 µM [falling, single point]
O=C(c1ccco1)N1CCN=C1SCc1cccnc1	inactive	–

# Following part:

Compound,"activity change, negative = inhibition",Potency
O=C(CNC(=O)c1ccco1)OCc1ccc(Cl)cc1,inconclusive: 15%,–
CC1CCOC2(O1)C(=O)N(CN1CCN(c3cccc(Cl)c3)CC1)c1ccccc12 (stereo not drawn),inconclusive: -10.8%,–
Cc1nn2c(-c3ccncc3)nnc2c2ccccc12,inactive,–
COCCOCCn1c(/C=C/c2ccccc2)nc2ccccc21,inactive,–
COc1ccc(OCc2cc(C(=O)N[C@H]3CCCCNC3=O)no2)c(Cl)c1,inconclusive: -2.71%,–
CC1=NN(c2nc3ccccc3[nH]2)C(=O)/C1=C/N(C)C,–,"inconclusive: 11.2 µM [falling, partial curve]"
O=C1Nc2ccccc2/C1=C/C(=O)c1cccs1,–,"inconclusive: 5.17 µM [rising, single point]"
COC(=O)CN(c1ccccc1F)S(=O)(=O)c1ccc(C)cc1,inconclusive: 15.9%,–
O=C(COc1ccccc1Cl)Nc1ccc(N2CCCC2)cc1,inconclusive: 4.71%,–
Cc1cc(C)c(O)c(-c2cc(C(=O)Nc3ccc(S(=O)(=O)N4CCOCC4)cc3)[nH]n2)c1,inconclusive: -7.83%,–
COc1cccc(-c2noc(N)c2C#N)c1,–,"inconclusive: 25.1 µM [falling, single point]"
O=C(c1ccc(Cl)nc1)N1CCN(C/C=C/c2ccccc2)CC1,inconclusive: 8.77%,–
COc1ccc(CCn2c(O)cc3nn(-c4nc5ccccc5s4)c(=O)c-3c2C)cc1,inactive,–
Cc1cc(C)nc(/N=C2/NC(=O)CS2)n1,inactive,–
CCN(Cc1ccccc1)S(=O)(=O)c1cc(C(=O)OC)n(C)c1,inactive,–
Cc1ccc(C2C(C#N)=C(N)Oc3cc(C)oc(=O)c32)o1 (stereo not drawn),–,"inconclusive: 12.6 µM [falling, single point]"
CN1CCN(/N=C/c2nc(-c3ccc(Cl)cc3)n3ccccc23)CC1,inactive,–
O=C(/C=C/c1ccc(N2CCC(c3ccccc3)=N2)cc1)c1ccccc1,inactive,–
Brc1ccc(C2=CC(c3cccs3)n3ncnc3N2)cc1 (stereo not drawn),–,"inconclusive: 6.31 µM [falling, single point]"
CCOC(=O)c1sc(NC(=O)Cc2ccc(F)cc2)nc1C,inconclusive: 2.96%,–
O=C(CN1C(=O)NC(c2ccccc2)(c2ccccc2)C1=O)NC1CCCC1,inactive,–

Compound,"activity change, negative = inhibition",Potency
COCCOC(=O)CSc1ncccc1-c1nc2cc(C)c(C)cc2[nH]1,–,"inconclusive: 20 µM [falling, partial curve, poor fit]"
CCOC(=O)c1ccc(N2CCOCC2)c(NC(=O)c2c(-c3ccccc3)noc2C)c1,–,"inconclusive: 12.6 µM [falling, partial curve, poor fit]"
C/C(Cn1cnc([N+](=O)[O-])n1)=N\NC(=O)c1cccc(F)c1,–,"inconclusive: 5.17 µM [cytotoxic, partial curve, poor fit]"
CCOC(=O)N1CCN(C(=O)CSCc2ccc(Br)cc2)CC1,inconclusive: -6.44%,–
COc1cc(/C=C/c2nc(-c3ccccc3O)n[nH]2)cc(OC)c1OC,–,"inconclusive: 32.6 µM [falling, single point]"
CCc1ccc(OCC(O)CN2CCC(CN3C(=O)c4cccc5cccc(c45)C3=O)CC2)cc1 (stereo not drawn),inactive,–
COc1ccc2oc(C(=O)OCC(=O)/C(C#N)=C(\C)N)c(C)c2c1,inactive,–
CCc1nc2ccccc2c(C(=O)Oc2cccc3cccnc23)c1C,inconclusive: -3.1%,–
CCN1CCCC1CN(Cc1cc2ccc(C)cc2[nH]c1=O)C(=S)Nc1ccccc1C(=O)OC (stereo not drawn),inconclusive: 5.67%,–
COc1c(/C=N/NC(=O)c2ccccc2O)c(CCN(C)C(C)=O)cc2c1OCO2,–,"inconclusive: 18.4 µM [falling, partial curve]"
NS(=O)(=O)c1ccc(NC(=O)c2c(F)cccc2Cl)cc1,inconclusive: -3.94%,–
COC(=O)N/N=C/c1ccc(OS(=O)(=O)c2ccc(C)cc2)c(OC)c1,inconclusive: -14.8%,–
CCn1c(SCc2nc3scc(-c4ccccc4)c3c(=O)[nH]2)nnc1-c1cccs1,inconclusive: -1.86%,–
O=C(CCn1c(=O)c2ccccc2n(Cc2cccnc2)c1=O)NCc1ccc2c(c1)OCO2,inconclusive: 5.83%,–
CCc1ccc2c(c1)cc(CN(Cc1ccco1)C(C)=O)c1nnnn12,inconclusive: 2.72%,–
Cc1ccc(-c2csc(NC(=O)CCNC(=O)c3ccccc3Cl)n2)cc1,inconclusive: 8.93%,–
CC(=O)Nc1ccc(S(=O)(=O)N(C)CC(=O)OCC(=O)Nc2ccc3c(c2)OCO3)cc1,inconclusive: 2.58%,–
CCOc1cc(C2C(C#N)=C(N)Oc3cc(N)ccc32)ccc1O (stereo not drawn),inconclusive: -2.36%,–
CC1CCN(c2ccc(NC(=O)c3ccccc3[N+](=O)[O-])cc2)CC1,–,"inconclusive: 7.94 µM [falling, partial curve, poor fit]"
CC(C)[C@H](NC(=O)c1ccc(Cl)cc1Cl)C(=O)NNC(=O)c1ccco1,inactive,–
CCOC(=O)NC(=O)CSc1nnnn1-c1ccc(C)cc1,inconclusive: 0.354%,–

Compound,"activity change, negative = inhibition",Potency
Cc1cc(Br)ccc1NCc1ccccn1,inconclusive: -6.75%,–
CCOc1ccc(Cl)cc1S(=O)(=O)N1CCN(c2ccc(C)c(C)c2)CC1,inconclusive: -0.13%,–
CC1(C)OC(=O)CC1C(=O)NCc1ccccc1 (stereo not drawn),inconclusive: 2.24%,–
COc1cccc2sc(N(CCCN(C)C)C(=O)C(c3ccccc3)c3ccccc3)nc12,inconclusive: -2.99%,–
COc1ccc(C(=O)Nc2c(N)nc(SCC(=O)NCC3CCCO3)[nH]c2=O)cc1 (stereo not drawn),inconclusive: -0.367%,–
CCC(=O)NC1CC2CCCC(C1)N2Cc1ccc(C)cc1 (stereo not drawn),inactive,–
CCc1nn(CC(=O)NCCCN2CCN(CC)CC2)c(=O)c2cc3occc3n12,inactive,–
CC1CC(C)CN(C(=O)C(Cc2ccccc2)NC(=O)c2ccccc2)C1 (stereo not drawn),inconclusive: 2.54%,–
Cc1ccc(-n2ncc3c2CCCC3NC(=O)c2ocnc2C)cc1C (stereo not drawn),inconclusive: -13.5%,–
Nc1ncnc2c1ncn2[C@@H]1O[C@H](CNS(=O)(=O)c2ccc3c(c2)CCN(C(=O)C(F)(F)F)C3)[C@@H](O)[C@H]1O,inconclusive: 2.06%,–
Cc1ccc(-n2c(-c3ccccc3)nnc2-c2cccs2)cc1,inactive,–
O=C(O)CCC(=O)Nc1nc(-c2ccccc2)cs1,–,"inconclusive: 20.6 µM [falling, single point]"
O=C(COC(=O)/C=C/c1ccco1)NCCc1ccccc1,inconclusive: -2.25%,–
C[C@]12c3[nH]c4ccccc4c3CCN1C(=O)C(CC(=O)NCC13CC4CC(CC(C4)C1)C3)C[C@@H]2C(=O)N1CCCCC1 (stereo partly drawn),inactive,–
Cc1csc2c(N(C)CCO)ncnc12,inconclusive: 5.24%,–
CC(=O)Nc1cccc(NC(=O)c2ccc3[nH]c(C)c(C)c3c2)c1,–,"inconclusive: 20 µM [falling, partial curve, poor fit]"
O=C(CCc1nc2ccccc2[nH]1)Nc1ccc(F)cc1,inconclusive: -6.38%,–
Cc1nc2ccc(NC(=O)N3CCN(c4ccccn4)CC3)cc2s1,inconclusive: 9.75%,–
COc1ccc(-n2nc(C(=O)NCC(=O)N3CCCCCC3)c3ccccc3c2=O)cc1Cl,inconclusive: 11.5%,–
Cn1c(C(C#N)C(=O)c2sc3ccccc3c2Cl)nc2ccccc21 (stereo not drawn),inactive,–
